Measurements: the supplement of paper PMC10735217
Where a name gives a salt, the structure may show the parent alone. This is one part of the list. Repeats in this data set agree poorly, so a single value says little.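 The human kidney-derived cells carry a stably integrated construct of eight TEAD-binding elements driving luciferase, read by luminescence in a drug-repurposing library screen. A compound counts as a hit when its signal is more than five robust Z scores above the plate mean.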

System: HEK293A TEAD-LUC reporter
Assay: TEAD-luciferase reporter activity (YAP activation), robust Z score vs plate; higher = stronger YAP/TEAD activation
Settings: 24 h

`CC1(C)SC2C(NC(=O)C(N)c3ccc(O)cc3)C(=O)N2C1C(=O)O` (configuration not stated) [amoxicillin, CSL] was tested. Which TEAD-luciferase reporter activity (compound concentration: 200 nM) did it give?
The TEAD-luciferase reporter activity was inactive: 1.76.

What about the TEAD-luciferase reporter activity (compound concentration: 2 uM) of the same compound?
The TEAD-luciferase reporter activity was inactive: -0.159.

And the TEAD-luciferase reporter activity (compound concentration: 10 uM)?
The TEAD-luciferase reporter activity was inactive: -0.173.

Which TEAD-luciferase reporter activity (compound concentration: 200 nM) does the source give for `CN1CC(=O)N(CCCC(=O)N2CCN(c3ccccc3)CC2)C1=O` here?
Its TEAD-luciferase reporter activity is inactive: -0.465.

What about the TEAD-luciferase reporter activity (compound concentration: 2 uM) of the same compound?
The TEAD-luciferase reporter activity was inactive: 0.787.

And the TEAD-luciferase reporter activity (compound concentration: 10 uM)?
The TEAD-luciferase reporter activity was inactive: -1.22.

Which results are given for `Cc1c(CN(C)C(=O)/C=C/c2cnc3c(c2)CNC(=O)[C@H](C)N3)oc2ccccc12` [Debio-1453]?
TEAD-luciferase reporter activity (compound concentration: 200 nM): inactive: -0.203; TEAD-luciferase reporter activity (compound concentration: 2 uM): inactive: -0.83; TEAD-luciferase reporter activity (compound concentration: 10 uM): inactive: -0.17

For `C[N+](C)(CCOc1ccccc1)Cc1ccccc1`, which TEAD-luciferase reporter activity (compound concentration: 200 nM) is on record?
The TEAD-luciferase reporter activity was inactive: -2.52.

What about the TEAD-luciferase reporter activity (compound concentration: 2 uM) of the same compound?
Its TEAD-luciferase reporter activity is inactive: -1.48.

And the TEAD-luciferase reporter activity (compound concentration: 10 uM)?
Its TEAD-luciferase reporter activity is inactive: -0.882.

Which TEAD-luciferase reporter activity (compound concentration: 200 nM) does the source give for `Cc1oc(-c2cccs2)nc1CCOc1ccc(CC2SC(=O)NC2=O)c2sccc12` (configuration not stated) here?
The TEAD-luciferase reporter activity was inactive: 0.569.

And the TEAD-luciferase reporter activity (compound concentration: 2 uM)?
The TEAD-luciferase reporter activity was inactive: -0.139.

What about the TEAD-luciferase reporter activity (compound concentration: 10 uM) of the same compound?
Its TEAD-luciferase reporter activity is inactive: 0.612.

For `CCCCCCCC/N=C/N1CCC(C(c2ccccc2)c2ccccc2)CC1` [fenoctimine sulfate], which TEAD-luciferase reporter activity (compound concentration: 200 nM) is on record?
Its TEAD-luciferase reporter activity is inactive: 1.42.

What about the TEAD-luciferase reporter activity (compound concentration: 2 uM) of the same compound?
The TEAD-luciferase reporter activity was inactive: -1.2.

And the TEAD-luciferase reporter activity (compound concentration: 10 uM)?
Its TEAD-luciferase reporter activity is inactive: -0.717.

What does the source list for `CNC(=S)n1nc(-c2ccc(Cl)cc2)nc1N` [Pharmaprojects No. 4538]?
TEAD-luciferase reporter activity (compound concentration: 200 nM): inactive: -1.54; TEAD-luciferase reporter activity (compound concentration: 2 uM): inactive: -0.172; TEAD-luciferase reporter activity (compound concentration: 10 uM): inactive: -0.948

Which results are given for `Cc1nn(-c2ncccc2CO)cc1CN1CCC2(CC1)OCC(F)(F)c1cc(Cl)sc12`?
TEAD-luciferase reporter activity (compound concentration: 200 nM): inactive: -0.686; TEAD-luciferase reporter activity (compound concentration: 2 uM): inactive: 0.713; TEAD-luciferase reporter activity (compound concentration: 10 uM): inactive: 1.67

What does the source list for `CC(=O)SCC(Cc1ccccc1)C(=O)NCC(=O)OCc1ccccc1` (configuration not stated)?
TEAD-luciferase reporter activity (compound concentration: 200 nM): inactive: -0.236; TEAD-luciferase reporter activity (compound concentration: 10 uM): active: 5.35

How did the TEAD-luciferase reporter activity (compound concentration: 2 uM) turn out when `CC(=O)SCC(Cc1ccccc1)C(=O)NCC(=O)OCc1ccccc1` (configuration not stated) [dexecadotril] was run?
The TEAD-luciferase reporter activity was inactive: 1.89.

With `Cc1ccc(N(CC2=NCCN2)c2ccc(O)cc2)cc1` [phentolamine mesylate, Novalar] as the compound, how does the TEAD-luciferase reporter activity (compound concentration: 200 nM) read?
Its TEAD-luciferase reporter activity is inactive: -1.44.

What about the TEAD-luciferase reporter activity (compound concentration: 2 uM) of the same compound?
The TEAD-luciferase reporter activity was inactive: 0.192.

And the TEAD-luciferase reporter activity (compound concentration: 10 uM)?
Its TEAD-luciferase reporter activity is inactive: 2.34.

What does the source list for `O=C1C(NS(=O)(=O)c2cc3ncccc3s2)CCN1Cc1cc2ccncc2[nH]1` (configuration not stated)?
TEAD-luciferase reporter activity (compound concentration: 200 nM): inactive: 0.929; TEAD-luciferase reporter activity (compound concentration: 2 uM): inactive: -0.685; TEAD-luciferase reporter activity (compound concentration: 10 uM): inactive: 0.0304

Which TEAD-luciferase reporter activity (compound concentration: 200 nM) does the source give for `O=P(O)(O)O[C@H]1[C@H](OP(=O)(O)O)[C@@H](OP(=O)(O)O)[C@H](OP(=O)(O)O)[C@@H](OP(=O)(O)O)[C@H]1OP(=O)(O)O` [Sodium phytate] here?
The TEAD-luciferase reporter activity was inactive: -0.918.

What about the TEAD-luciferase reporter activity (compound concentration: 2 uM) of the same compound?
Its TEAD-luciferase reporter activity is inactive: 0.206.

And the TEAD-luciferase reporter activity (compound concentration: 10 uM)?
The TEAD-luciferase reporter activity was inactive: -0.915.

For `CN(CCc1ccccc1)CC1CCCc2cc(O)ccc21` (configuration not stated), which TEAD-luciferase reporter activity (compound concentration: 200 nM) is on record?
Its TEAD-luciferase reporter activity is inactive: -1.44.

And the TEAD-luciferase reporter activity (compound concentration: 2 uM)?
Its TEAD-luciferase reporter activity is inactive: -0.488.

What about the TEAD-luciferase reporter activity (compound concentration: 10 uM) of the same compound?
The TEAD-luciferase reporter activity was inactive: 0.615.

`CCc1c(CC(N)=O)c2cc(OCCCP(=O)(O)O)ccc2n1Cc1ccccc1` was tested. Which TEAD-luciferase reporter activity (compound concentration: 200 nM) did it give?
The TEAD-luciferase reporter activity was inactive: -1.08.

What about the TEAD-luciferase reporter activity (compound concentration: 2 uM) of the same compound?
The TEAD-luciferase reporter activity was inactive: -0.708.

What about the TEAD-luciferase reporter activity (compound concentration: 10 uM) of the same compound?
The TEAD-luciferase reporter activity was inactive: 2.7.

How did the TEAD-luciferase reporter activity (compound concentration: 200 nM) turn out when `O=C(CC1(c2ccccc2)C2CC3CC1CC(C2)C3O)N1CC(O)C1` (configuration not stated) was run?
The TEAD-luciferase reporter activity was inactive: -0.0243.

What about the TEAD-luciferase reporter activity (compound concentration: 2 uM) of the same compound?
Its TEAD-luciferase reporter activity is inactive: -1.71.

What about the TEAD-luciferase reporter activity (compound concentration: 10 uM) of the same compound?
The TEAD-luciferase reporter activity was inactive: 0.175.

Which TEAD-luciferase reporter activity (compound concentration: 200 nM) does the source give for `CC(=O)NCCCC(=O)N1CCCC2(Cc3ccccc3CN2C(C)=O)C1` (configuration not stated) here?
Its TEAD-luciferase reporter activity is inactive: -0.895.

What about the TEAD-luciferase reporter activity (compound concentration: 10 uM) of the same compound?
Its TEAD-luciferase reporter activity is inactive: 0.897.

How did the TEAD-luciferase reporter activity (compound concentration: 200 nM) turn out when `COc1cc2c(cc1OC)-c1c/c(=N\c3c(C)cc(C)cc3C)n(C)c(=O)n1CC2` was run?
Its TEAD-luciferase reporter activity is inactive: -0.893.

And the TEAD-luciferase reporter activity (compound concentration: 2 uM)?
The TEAD-luciferase reporter activity was inactive: 0.671.

What about the TEAD-luciferase reporter activity (compound concentration: 10 uM) of the same compound?
Its TEAD-luciferase reporter activity is inactive: -1.97.

Which results are given for `Cn1c(=O)n(-c2ccc(C(C)(C)C#N)cc2)c2c3cc(-c4cnc5ccccc5c4)ccc3ncc21` [dactolisib]?
TEAD-luciferase reporter activity (compound concentration: 200 nM): inactive: -2.23; TEAD-luciferase reporter activity (compound concentration: 2 uM): inactive: -1.56; TEAD-luciferase reporter activity (compound concentration: 10 uM): inactive: 2.07

For `N=C(N)NC(=O)c1cc2c(Cl)cccc2n1CCCS(=O)(=O)O`, which TEAD-luciferase reporter activity (compound concentration: 200 nM) is on record?
Its TEAD-luciferase reporter activity is inactive: -0.496.

And the TEAD-luciferase reporter activity (compound concentration: 2 uM)?
Its TEAD-luciferase reporter activity is inactive: -0.879.

And the TEAD-luciferase reporter activity (compound concentration: 10 uM)?
Its TEAD-luciferase reporter activity is inactive: 0.947.

With `CC1CC(OC(=O)C(OC(=O)c2cccnc2)c2ccccc2)CC(C)(C)C1` (configuration not stated) [Micinicate] as the compound, how does the TEAD-luciferase reporter activity (compound concentration: 200 nM) read?
The TEAD-luciferase reporter activity was inactive: 1.47.

What about the TEAD-luciferase reporter activity (compound concentration: 2 uM) of the same compound?
The TEAD-luciferase reporter activity was inactive: -0.862.

What about the TEAD-luciferase reporter activity (compound concentration: 10 uM) of the same compound?
Its TEAD-luciferase reporter activity is inactive: -0.464.

`N=C1N[C@H]2[C@H](CS[C@H]2CCCCC(=O)O)N1` [2-Iminobiotin] was tested. Which TEAD-luciferase reporter activity (compound concentration: 200 nM) did it give?
The TEAD-luciferase reporter activity was inactive: -0.299.

And the TEAD-luciferase reporter activity (compound concentration: 10 uM)?
The TEAD-luciferase reporter activity was inactive: -0.0511.

What does the source list for `CCc1cc(OCc2ccc(-c3ccccc3-c3nnn[nH]3)cc2)c2c(n1)CCCC2`?
TEAD-luciferase reporter activity (compound concentration: 200 nM): inactive: 1.64; TEAD-luciferase reporter activity (compound concentration: 2 uM): inactive: -0.924; TEAD-luciferase reporter activity (compound concentration: 10 uM): inactive: 4.33

With `CC[C@H]1C(=O)Nc2ccc(F)cc2N1C(=O)OC(C)C` [Opaviraline] as the compound, how does the TEAD-luciferase reporter activity (compound concentration: 200 nM) read?
The TEAD-luciferase reporter activity was inactive: 0.718.

What about the TEAD-luciferase reporter activity (compound concentration: 2 uM) of the same compound?
The TEAD-luciferase reporter activity was inactive: -1.85.

And the TEAD-luciferase reporter activity (compound concentration: 10 uM)?
The TEAD-luciferase reporter activity was inactive: -0.488.

With `CN(C)CCC1CCc2cc(OCc3ccc(-c4ccccc4)cc3)ccc2C1` (configuration not stated) as the compound, how does the TEAD-luciferase reporter activity (compound concentration: 200 nM) read?
The TEAD-luciferase reporter activity was inactive: -1.21.

And the TEAD-luciferase reporter activity (compound concentration: 2 uM)?
Its TEAD-luciferase reporter activity is inactive: -0.192.

What about the TEAD-luciferase reporter activity (compound concentration: 10 uM) of the same compound?
Its TEAD-luciferase reporter activity is inactive: 3.64.

Which results are given for `Cc1c(O)c(=O)ccn1C`?
TEAD-luciferase reporter activity (compound concentration: 200 nM): inactive: 1.6; TEAD-luciferase reporter activity (compound concentration: 10 uM): inactive: -0.37
